B1: Fc-IL2-K35N-T41N:K43T (protein)
chain: APTSSSTKKTQLQLEHLLLDLQMILNGINNYKNPNLTRMLNFTFYMPKKATELKHLQCLEEELKPLEEVLNLAQSKNFHLRPRDLISNINVIVLELKGSETTFMCEYADETATIVEFLNRWITFCQSIISTLT
B2: Fc-IL2-R38N:L40T-T41N:K43T (protein)
chain: APTSSSTKKTQLQLEHLLLDLQMILNGINNYKNPKLTNMTNFTFYMPKKATELKHLQCLEEELKPLEEVLNLAQSKNFHLRPRDLISNINVIVLELKGSETTFMCEYADETATIVEFLNRWITFCQSIISTLT
B3: Fc-IL2-R38N:L40T-K43N:Y45T (protein)
chain: APTSSSTKKTQLQLEHLLLDLQMILNGINNYKNPKLTNMTTFNFTMPKKATELKHLQCLEEELKPLEEVLNLAQSKNFHLRPRDLISNINVIVLELKGSETTFMCEYADETATIVEFLNRWITFCQSIISTLT
B4: Fc-IL2-R38N:L40T-E62N:K64T (protein)
chain: APTSSSTKKTQLQLEHLLLDLQMILNGINNYKNPKLTNMTTFKFYMPKKATELKHLQCLEENLTPLEEVLNLAQSKNFHLRPRDLISNINVIVLELKGSETTFMCEYADETATIVEFLNRWITFCQSIISTLT
B5: Fc-IL2-R38N:L40T-L72N:Q74T (protein)
chain: APTSSSTKKTQLQLEHLLLDLQMILNGINNYKNPKLTNMTTFKFYMPKKATELKHLQCLEEELKPLEEVLNNATSKNFHLRPRDLISNINVIVLELKGSETTFMCEYADETATIVEFLNRWITFCQSIISTLT
B6: Fc-IL2-T41N:K43T-E62N:K64T (protein)
chain: APTSSSTKKTQLQLEHLLLDLQMILNGINNYKNPKLTRMLNFTFYMPKKATELKHLQCLEENLTPLEEVLNLAQSKNFHLRPRDLISNINVIVLELKGSETTFMCEYADETATIVEFLNRWITFCQSIISTLT
B7: Fc-IL2-T41N:K43T-L72N:Q74T (protein)
chain: APTSSSTKKTQLQLEHLLLDLQMILNGINNYKNPKLTRMLNFTFYMPKKATELKHLQCLEEELKPLEEVLNNATSKNFHLRPRDLISNINVIVLELKGSETTFMCEYADETATIVEFLNRWITFCQSIISTLT
B8: Fc-IL2-K43N:Y45T-E62N:K64T (protein)
chain: APTSSSTKKTQLQLEHLLLDLQMILNGINNYKNPKLTRMLTFNFTMPKKATELKHLQCLEENLTPLEEVLNLAQSKNFHLRPRDLISNINVIVLELKGSETTFMCEYADETATIVEFLNRWITFCQSIISTLT
B9: Fc-IL2-K43N:Y45T-L72N:Q74T (protein)
chain: APTSSSTKKTQLQLEHLLLDLQMILNGINNYKNPKLTRMLTFNFTMPKKATELKHLQCLEEELKPLEEVLNNATSKNFHLRPRDLISNINVIVLELKGSETTFMCEYADETATIVEFLNRWITFCQSIISTLT

Key:
[1] = Glycosylation of introduced sites, microfluidic electrophoresis after PNGase F; format: physicochemical; conditions: for Microfluidic Electrophoresis Site 1 (%): glycosylation of first listed potential glycosylation site; for Microfluidic Electrophoresis Site 2 (%): glycosylation of second listed site, partial occupancy of dual glycokines assigned based on single site occupancy results
[2] = Number of N-glycans by mass spectrometry; format: physicochemical; conditions: for Mass Spectrometry IL-2 N-Glycan: glycans attributed to the fused IL-2; for Mass Spectrometry Total N-Glycan: includes the 2 Asn297 glycans of the Fc domain

| Molecule | Microfluidic Electrophoresis Site 1 (%) [1] [%] | Mass Spectrometry IL-2 N-Glycan [2] | Mass Spectrometry Total N-Glycan [2] | Microfluidic Electrophoresis Site 2 (%) [1] [%] |
| --- | --- | --- | --- | --- |
| Fc-IL2-E62N:K64T | 0 | 0 | 2 | – |
| Fc-IL2-E68N:L70T | 0 | 0 | 2 | – |
| Fc-IL2-F42N:F44T | 0 | 0 | 2 | – |
| Fc-IL2-K35N | 31 | – | – | – |
| Fc-IL2-K43N:Y45T | >99 | 1 | 3 | – |
| Fc-IL2-L72N:Q74T | 94 | 1 | 3 | – |
| Fc-IL2-R38N:L40T | >99 | 1 | 3 | – |
| Fc-IL2-T41N:K43T | >99 | 1 | 3 | – |
| B1 | 38 | – | – | >99 |
| B2 | >99 | 1 | 3 | – |
| B3 | >99 | 2 | 4 | >99 |
| B4 | >99 | 1 | 3 | 0 |
| B5 | >99 | 2 | 4 | >99 |
| B6 | >99 | 1 | 3 | 0 |
| B7 | >99 | 2 | 4 | >99 |
| B8 | >99 | 1 | 3 | 0 |
| B9 | >99 | 2 | 4 | >99 |

Reference: patent publication US20220033784A1 (priority 2020, published 2022)
